In the supplement of paper PMC10849652:
The other results are listed elsewhere or left out.

Protein sequences, listed by entry. Tags and fused reporters are not part of them. Lines headed by an entry give the natural chain unless they say otherwise; changes in a name come on top.
UniProt O14949: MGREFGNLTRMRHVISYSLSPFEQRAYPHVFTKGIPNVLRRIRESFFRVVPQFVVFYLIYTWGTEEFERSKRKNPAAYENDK
UniProt Q8IWV8: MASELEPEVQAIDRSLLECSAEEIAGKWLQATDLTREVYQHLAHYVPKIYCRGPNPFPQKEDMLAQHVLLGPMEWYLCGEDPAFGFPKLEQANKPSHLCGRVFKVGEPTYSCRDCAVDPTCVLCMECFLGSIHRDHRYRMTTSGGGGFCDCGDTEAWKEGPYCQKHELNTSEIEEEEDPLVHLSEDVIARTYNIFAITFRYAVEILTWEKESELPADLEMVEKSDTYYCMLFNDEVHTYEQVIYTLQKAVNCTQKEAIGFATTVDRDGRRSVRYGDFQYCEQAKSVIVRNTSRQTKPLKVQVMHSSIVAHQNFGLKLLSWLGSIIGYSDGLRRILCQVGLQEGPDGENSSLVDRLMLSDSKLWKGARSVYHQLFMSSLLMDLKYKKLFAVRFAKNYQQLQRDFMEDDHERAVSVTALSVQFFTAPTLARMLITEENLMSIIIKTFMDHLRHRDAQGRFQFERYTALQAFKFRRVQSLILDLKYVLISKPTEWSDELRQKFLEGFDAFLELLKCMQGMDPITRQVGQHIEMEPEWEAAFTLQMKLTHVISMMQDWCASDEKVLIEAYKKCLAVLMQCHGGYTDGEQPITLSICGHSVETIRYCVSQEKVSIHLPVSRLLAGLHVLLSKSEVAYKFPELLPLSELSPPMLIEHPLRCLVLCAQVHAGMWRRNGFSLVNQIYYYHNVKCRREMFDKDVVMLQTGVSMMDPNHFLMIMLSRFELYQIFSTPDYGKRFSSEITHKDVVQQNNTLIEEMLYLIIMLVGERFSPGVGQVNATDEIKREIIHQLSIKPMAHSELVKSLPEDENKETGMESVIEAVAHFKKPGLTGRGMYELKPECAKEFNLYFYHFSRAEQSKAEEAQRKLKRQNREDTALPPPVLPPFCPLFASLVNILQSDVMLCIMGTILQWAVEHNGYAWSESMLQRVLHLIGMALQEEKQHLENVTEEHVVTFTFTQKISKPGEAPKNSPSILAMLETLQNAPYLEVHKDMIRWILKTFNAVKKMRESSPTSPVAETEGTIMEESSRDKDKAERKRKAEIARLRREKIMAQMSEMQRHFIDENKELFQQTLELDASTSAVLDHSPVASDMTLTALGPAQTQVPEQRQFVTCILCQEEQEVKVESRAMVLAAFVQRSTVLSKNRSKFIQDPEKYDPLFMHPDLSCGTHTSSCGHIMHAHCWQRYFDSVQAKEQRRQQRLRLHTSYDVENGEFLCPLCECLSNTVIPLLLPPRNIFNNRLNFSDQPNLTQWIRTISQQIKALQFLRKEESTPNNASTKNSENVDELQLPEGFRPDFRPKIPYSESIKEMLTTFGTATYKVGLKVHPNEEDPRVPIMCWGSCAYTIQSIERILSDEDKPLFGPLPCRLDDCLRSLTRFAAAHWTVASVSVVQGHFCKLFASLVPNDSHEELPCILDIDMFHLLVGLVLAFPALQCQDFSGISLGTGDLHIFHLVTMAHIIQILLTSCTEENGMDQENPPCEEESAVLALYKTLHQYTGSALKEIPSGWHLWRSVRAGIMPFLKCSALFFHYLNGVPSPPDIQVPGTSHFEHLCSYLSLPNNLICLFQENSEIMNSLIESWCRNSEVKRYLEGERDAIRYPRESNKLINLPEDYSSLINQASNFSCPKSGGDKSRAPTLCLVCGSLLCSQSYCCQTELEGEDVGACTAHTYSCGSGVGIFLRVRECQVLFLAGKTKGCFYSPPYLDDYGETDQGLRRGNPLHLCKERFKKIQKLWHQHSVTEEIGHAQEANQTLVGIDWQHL
UniProt Q9Y5K5, whole entry, looked up: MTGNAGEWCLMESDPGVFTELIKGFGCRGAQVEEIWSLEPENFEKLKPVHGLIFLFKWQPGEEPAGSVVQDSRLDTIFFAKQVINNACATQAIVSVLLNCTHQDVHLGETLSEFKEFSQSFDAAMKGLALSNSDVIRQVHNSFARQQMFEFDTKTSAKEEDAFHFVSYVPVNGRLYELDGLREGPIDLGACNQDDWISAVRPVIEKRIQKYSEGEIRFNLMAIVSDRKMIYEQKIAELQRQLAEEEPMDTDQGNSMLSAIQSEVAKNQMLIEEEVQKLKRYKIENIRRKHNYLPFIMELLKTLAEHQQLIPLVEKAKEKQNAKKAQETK
UniProt P26640: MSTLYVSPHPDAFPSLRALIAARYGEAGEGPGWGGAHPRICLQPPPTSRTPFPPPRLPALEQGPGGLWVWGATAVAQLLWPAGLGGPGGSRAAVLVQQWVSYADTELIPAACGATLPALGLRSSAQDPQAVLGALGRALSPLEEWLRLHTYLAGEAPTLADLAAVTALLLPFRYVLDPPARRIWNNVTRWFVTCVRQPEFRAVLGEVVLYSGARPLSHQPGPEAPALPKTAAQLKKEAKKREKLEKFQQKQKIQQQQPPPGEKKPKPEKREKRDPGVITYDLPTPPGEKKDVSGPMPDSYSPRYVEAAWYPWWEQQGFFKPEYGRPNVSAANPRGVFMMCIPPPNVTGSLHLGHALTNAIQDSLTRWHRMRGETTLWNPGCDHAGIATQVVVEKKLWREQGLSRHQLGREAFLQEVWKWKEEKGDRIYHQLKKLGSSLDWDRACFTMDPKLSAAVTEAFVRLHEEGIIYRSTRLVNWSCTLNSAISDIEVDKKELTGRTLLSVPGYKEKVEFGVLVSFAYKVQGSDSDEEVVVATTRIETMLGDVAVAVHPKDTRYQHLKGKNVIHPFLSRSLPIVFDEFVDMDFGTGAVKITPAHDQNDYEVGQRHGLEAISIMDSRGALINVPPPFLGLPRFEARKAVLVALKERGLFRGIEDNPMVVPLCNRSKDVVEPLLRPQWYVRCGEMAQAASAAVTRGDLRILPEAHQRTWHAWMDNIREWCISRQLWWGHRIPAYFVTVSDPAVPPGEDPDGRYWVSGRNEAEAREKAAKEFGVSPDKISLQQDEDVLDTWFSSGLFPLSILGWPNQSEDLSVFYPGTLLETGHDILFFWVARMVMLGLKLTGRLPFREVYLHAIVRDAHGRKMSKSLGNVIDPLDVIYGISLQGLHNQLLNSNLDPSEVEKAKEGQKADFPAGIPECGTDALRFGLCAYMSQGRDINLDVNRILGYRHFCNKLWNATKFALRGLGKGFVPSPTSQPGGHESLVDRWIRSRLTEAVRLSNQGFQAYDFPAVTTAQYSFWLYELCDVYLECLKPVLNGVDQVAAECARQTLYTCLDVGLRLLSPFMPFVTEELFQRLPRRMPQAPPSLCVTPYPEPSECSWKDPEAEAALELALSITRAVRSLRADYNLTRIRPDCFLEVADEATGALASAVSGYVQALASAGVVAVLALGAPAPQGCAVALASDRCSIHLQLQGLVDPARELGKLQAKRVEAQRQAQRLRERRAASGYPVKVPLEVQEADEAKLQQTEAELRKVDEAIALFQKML
UniProt P10746: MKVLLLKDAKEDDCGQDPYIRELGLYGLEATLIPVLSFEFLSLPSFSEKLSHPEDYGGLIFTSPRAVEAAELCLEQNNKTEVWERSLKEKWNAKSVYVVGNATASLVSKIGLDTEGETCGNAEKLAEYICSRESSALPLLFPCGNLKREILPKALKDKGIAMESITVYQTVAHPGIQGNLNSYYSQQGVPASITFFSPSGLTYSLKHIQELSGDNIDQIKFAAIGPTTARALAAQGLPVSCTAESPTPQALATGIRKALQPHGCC
UniProt O95071: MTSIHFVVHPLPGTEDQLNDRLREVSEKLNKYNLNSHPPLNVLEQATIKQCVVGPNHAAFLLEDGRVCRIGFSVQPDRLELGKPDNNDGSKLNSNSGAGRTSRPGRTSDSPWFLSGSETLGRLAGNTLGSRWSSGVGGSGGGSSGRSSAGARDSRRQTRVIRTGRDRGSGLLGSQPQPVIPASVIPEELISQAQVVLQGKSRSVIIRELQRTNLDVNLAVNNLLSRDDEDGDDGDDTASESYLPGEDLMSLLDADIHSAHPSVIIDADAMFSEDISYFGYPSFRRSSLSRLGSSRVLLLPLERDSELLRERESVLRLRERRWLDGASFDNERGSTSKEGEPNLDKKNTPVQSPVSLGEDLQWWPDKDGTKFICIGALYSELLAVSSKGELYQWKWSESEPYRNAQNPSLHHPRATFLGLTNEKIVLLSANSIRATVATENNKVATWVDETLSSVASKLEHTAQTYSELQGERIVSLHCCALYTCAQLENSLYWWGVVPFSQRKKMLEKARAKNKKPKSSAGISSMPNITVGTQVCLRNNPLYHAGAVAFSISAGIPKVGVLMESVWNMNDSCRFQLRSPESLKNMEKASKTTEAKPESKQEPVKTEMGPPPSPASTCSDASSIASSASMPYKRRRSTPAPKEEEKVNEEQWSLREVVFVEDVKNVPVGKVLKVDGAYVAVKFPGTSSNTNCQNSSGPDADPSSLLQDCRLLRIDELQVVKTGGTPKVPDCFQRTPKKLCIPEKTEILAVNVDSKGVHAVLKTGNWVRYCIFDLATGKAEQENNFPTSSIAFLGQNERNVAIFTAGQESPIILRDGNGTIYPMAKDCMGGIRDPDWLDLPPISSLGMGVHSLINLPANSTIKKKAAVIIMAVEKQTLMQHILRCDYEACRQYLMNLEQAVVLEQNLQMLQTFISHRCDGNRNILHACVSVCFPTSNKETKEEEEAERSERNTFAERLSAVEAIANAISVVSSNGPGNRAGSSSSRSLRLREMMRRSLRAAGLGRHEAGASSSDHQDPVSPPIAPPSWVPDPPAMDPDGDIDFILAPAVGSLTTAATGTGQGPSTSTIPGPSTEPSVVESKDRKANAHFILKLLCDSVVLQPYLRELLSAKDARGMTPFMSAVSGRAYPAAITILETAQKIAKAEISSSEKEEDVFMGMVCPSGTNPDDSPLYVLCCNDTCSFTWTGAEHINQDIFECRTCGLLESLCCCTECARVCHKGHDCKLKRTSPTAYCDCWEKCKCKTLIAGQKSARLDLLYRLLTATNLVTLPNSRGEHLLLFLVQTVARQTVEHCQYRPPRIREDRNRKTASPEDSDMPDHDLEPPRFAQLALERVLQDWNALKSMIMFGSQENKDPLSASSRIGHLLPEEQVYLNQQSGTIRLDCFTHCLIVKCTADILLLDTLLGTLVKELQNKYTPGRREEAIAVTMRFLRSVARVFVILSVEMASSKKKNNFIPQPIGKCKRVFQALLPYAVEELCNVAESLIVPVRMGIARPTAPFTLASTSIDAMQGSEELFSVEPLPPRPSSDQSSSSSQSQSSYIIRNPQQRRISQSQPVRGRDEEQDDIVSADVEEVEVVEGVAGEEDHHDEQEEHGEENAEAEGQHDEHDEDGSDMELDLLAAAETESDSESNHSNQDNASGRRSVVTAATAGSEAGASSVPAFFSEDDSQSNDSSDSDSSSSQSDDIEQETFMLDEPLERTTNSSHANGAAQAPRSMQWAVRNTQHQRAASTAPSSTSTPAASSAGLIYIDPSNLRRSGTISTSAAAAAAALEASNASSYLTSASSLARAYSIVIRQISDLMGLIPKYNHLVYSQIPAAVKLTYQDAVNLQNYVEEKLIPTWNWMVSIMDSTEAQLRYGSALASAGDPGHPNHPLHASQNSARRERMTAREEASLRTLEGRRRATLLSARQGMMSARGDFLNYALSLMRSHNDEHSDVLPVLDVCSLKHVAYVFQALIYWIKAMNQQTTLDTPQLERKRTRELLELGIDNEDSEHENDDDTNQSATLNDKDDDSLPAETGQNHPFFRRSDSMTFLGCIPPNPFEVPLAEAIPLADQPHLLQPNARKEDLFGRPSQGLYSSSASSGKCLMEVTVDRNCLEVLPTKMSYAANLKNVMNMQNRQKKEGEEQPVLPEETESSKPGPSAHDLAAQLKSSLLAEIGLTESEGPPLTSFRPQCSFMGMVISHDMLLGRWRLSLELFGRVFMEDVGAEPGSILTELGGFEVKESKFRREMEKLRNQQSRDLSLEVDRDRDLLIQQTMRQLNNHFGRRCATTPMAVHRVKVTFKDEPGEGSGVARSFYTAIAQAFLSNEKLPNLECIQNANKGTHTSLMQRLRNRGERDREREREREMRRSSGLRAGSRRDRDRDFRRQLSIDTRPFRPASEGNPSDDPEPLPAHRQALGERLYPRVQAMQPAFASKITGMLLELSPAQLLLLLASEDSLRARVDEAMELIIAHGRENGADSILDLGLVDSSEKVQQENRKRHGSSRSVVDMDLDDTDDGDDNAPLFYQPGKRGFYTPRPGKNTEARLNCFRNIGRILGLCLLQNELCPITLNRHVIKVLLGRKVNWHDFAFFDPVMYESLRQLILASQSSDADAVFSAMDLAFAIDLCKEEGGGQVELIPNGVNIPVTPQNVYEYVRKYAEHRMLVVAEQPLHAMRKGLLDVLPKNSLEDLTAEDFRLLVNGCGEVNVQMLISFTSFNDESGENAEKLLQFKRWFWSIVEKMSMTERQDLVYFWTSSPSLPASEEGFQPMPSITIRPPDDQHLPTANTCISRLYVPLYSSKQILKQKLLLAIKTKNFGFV

Key:
Assay in all cases: log2 fold change, soluble protein after heating vs DMSO (PISA); higher = thermal stabilisation; K562 cells, 10 uM, 30 min; active = over 0.2 and 3.5 SD of the protein, either way, in both replicates (recomputed)
[1] = compound: C1=CC=C(C=C1)[C@H](COC2=CC3=C(C=C2)NC(=O)N3)NC(=O)C4=CC=CN(C4=O)CC5=CC(=C(C=C5)F)F
How it was run: (§1)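 K562 cells at 2×10^6 cells/mL were treated with 10 μM compound for 30 min. Aliquots were heated for 3 min across 48°C-58°C, pooled, and extracted in PBS with 0.5% NP-40 at 4°C; soluble protein was the supernatant after 21,000xg for 90 min. Soluble protein was quantified by TMTpro 16plex LC-MS/MS with channel sums equalised, and reported as log2 fold change in thermal stability against DMSO controls, with values from duplicates.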

[2] = compound: CC1=C(SC2=C1C(=N[C@H](C3=NN=C(N32)C)CC(=O)N)C4=CC=C(C=C4)Cl)C
How it was run: as §1

[3] = compound: CC1=C2C(=CC=C1)N=C(N(C2=O)C3=CC=CC=C3C)CN4C=NC5=C(N=CN=C54)N
How it was run: as §1

[4] = compound: Cc1sc2c(c1C)C(c1ccc(Cl)cc1)=N[C@@H](CC(=O)OC(C)(C)C)c1nnc(C)n1-2
How it was run: as §1

[5] = compound: c1ccc([C@@H]2C[C@H]2NC2CCNCC2)cc1
How it was run: as §1

Measured: log2 fold change

UGT8 (UniProt Q16880)
inactive: [1] 0.014 | [2] -0.008 | [3] -0.068 | [4] 0.298 | [5] -0.054

UNC45A (UniProt Q9H3U1)
inactive: [1] -0.069 | [2] -0.046 | [3] 0.023 | [4] -0.018 | [5] -0.022

UNG (UniProt P13051)
inactive: [1] -0.132 | [2] 0.097 | [3] 0.137 | [4] -0.12 | [5] 0.074

UTP14A (UniProt Q9BVJ6)
inactive: [1] 0.039 | [2] -0.276 | [3] -0.154 | [4] 0.124 | [5] 0.029

UXT isoform 2 (UniProt Q9UBK9)
inactive: [1] 0.046 | [2] 0.063 | [3] 0.065 | [4] -0.005 | [5] -0.077

Quoted from the listing (2 entries):
UGT8 (UniProt Q16880)
inactive: [1] 0.014 | [2] -0.008 | [3] -0.068 | [4] 0.298 | [5] -0.054

UNC45A (UniProt Q9H3U1)
inactive: [1] -0.069 | [2] -0.046 | [3] 0.023 | [4] -0.018 | [5] -0.022

Additional records follow.

USP10 isoform 2 (UniProt Q14694)
inactive: [1] 0.023 | [2] -0.012 | [3] -0.018 | [4] 0.066 | [5] -0.004

UQCRQ (UniProt O14949)
inactive: [1] 0.042 | [2] 0.05 | [3] -0.043 | [4] -0.003 | [5] -0.004

UBE3D (UniProt Q7Z6J8)
inactive: [1] 0.034 | [2] 0.057 | [3] 0.001 | [4] -0.051 | [5] 0.009

UBR4 isoform 2 (UniProt Q5T4S7)
inactive: [1] -0.006 | [2] -0.024 | [3] 0.012 | [4] 0.001 | [5] -0.032

UPF3B (UniProt Q9BZI7)
inactive: [1] 0.259 | [2] -0.211 | [3] -0.161 | [4] 0.363 | [5] -0.001

UBLCP1 (UniProt Q8WVY7)
inactive: [1] -0.066 | [2] 0.067 | [3] 0.066 | [4] -0.018 | [5] 0.011

UBP1 (UniProt Q9NZI7)
inactive: [1] 0.063 | [2] 0.045 | [3] 0.047 | [4] 0.075 | [5] -0.02

UBR2 (UniProt Q8IWV8)
inactive: [1] -0.16 | [2] 0.04 | [3] 0.009 | [4] -0.014 | [5] -0.28

UFC1 (UniProt Q9Y3C8)
inactive: [1] 0.006 | [2] 0 | [3] -0.049 | [4] -0.005 | [5] 0.037

UCHL5 (UniProt Q9Y5K5)
inactive: [1] -0.048 | [2] 0.004 | [3] 0.043 | [4] 0.027 | [5] 0.004

VAPA isoform 2 (UniProt Q9P0L0)
inactive: [1] -0.002 | [2] -0.001 | [3] 0.001 | [4] -0.019 | [5] 0.035

VAMP4 (UniProt O75379)
inactive: [1] 0.042 | [2] -0.002 | [3] 0.058 | [4] 0.069 | [5] -0.003

USP8 (UniProt P40818)
inactive: [1] -0.065 | [2] 0.029 | [3] 0.089 | [4] 0.051 | [5] -0.025

VASP (UniProt P50552)
inactive: [1] -0.138 | [2] 0.047 | [3] 0.128 | [4] 0.051 | [5] -0.087

UNK (UniProt Q9C0B0)
inactive: [1] 0.045 | [2] 0.026 | [3] -0.023 | [4] 0.09 | [5] 0.032

URGCP (UniProt Q8TCY9)
inactive: [1] 0.068 | [2] 0.023 | [3] 0.054 | [4] 0.082 | [5] -0.07

UFSP2 (UniProt Q9NUQ7)
inactive: [1] 0.005 | [2] 0.064 | [3] 0.057 | [4] 0.017 | [5] -0.019

USE1 (UniProt Q9NZ43)
inactive: [1] -0.05 | [2] -0.006 | [3] 0.009 | [4] 0.062 | [5] 0.02

UHRF1BP1L (UniProt A0JNW5)
inactive: [1] 0.024 | [2] 0.099 | [3] 0.05 | [4] -0.027 | [5] -0.018

VBP1 (UniProt P61758)
inactive: [1] 0.019 | [2] 0.003 | [3] -0.02 | [4] 0.002 | [5] 0.028

UBIAD1 (UniProt Q9Y5Z9)
inactive: [1] 0.012 | [2] 0.029 | [3] 0.068 | [4] -0.074 | [5] 0.093

VAMP7 (UniProt P51809)
inactive: [1] 0.007 | [2] 0.044 | [3] 0.077 | [4] -0.047 | [5] 0.015

VARS (UniProt P26640)
inactive: [1] -0.001 | [2] 0.007 | [3] 0.06 | [4] 0.009 | [5] -0.021

UROS (UniProt P10746)
inactive: [1] -0.076 | [2] 0.077 | [3] 0.004 | [4] -0.023 | [5] -0.042

UBE3C (UniProt Q15386)
inactive: [1] 0 | [2] 0.037 | [3] 0.072 | [4] -0.019 | [5] 0.002

USP14 (UniProt P54578)
inactive: [1] -0.031 | [2] 0.03 | [3] 0.046 | [4] -0.028 | [5] -0.025

USF2 (UniProt Q15853)
inactive: [1] -0.018 | [2] -0.105 | [3] -0.045 | [4] -0.031 | [5] -0.007

UBR5 (UniProt O95071)
inactive: [1] 0.051 | [2] -0.027 | [3] -0.006 | [4] 0.081 | [5] 0.072

UGGT1 (UniProt Q9NYU2)
inactive: [1] 0.032 | [2] 0.027 | [3] -0.003 | [4] -0.007 | [5] -0.021

UBXN8 (UniProt O00124)
inactive: [1] 0.3 | [2] -0.074 | [3] 0.192 | [4] 0.099 | [5] -0.055

USP34 (UniProt Q70CQ2)
inactive: [1] -0.083 | [2] 0.081 | [3] 0.142 | [4] -0.003 | [5] 0.034

UBFD1 (UniProt O14562)
inactive: [1] -0.009 | [2] 0.051 | [3] 0.04 | [4] -0.037 | [5] -0.065

USP15 (UniProt Q9Y4E8)
inactive: [1] -0.038 | [2] 0.035 | [3] 0.059 | [4] 0.008 | [5] -0.016

UCHL3 (UniProt P15374)
inactive: [1] -0.02 | [2] 0.044 | [3] 0.089 | [4] -0.023 | [5] -0.064

VAPA (UniProt Q9P0L0)
inactive: [1] -0.032 | [2] 0 | [3] 0.029 | [4] -0.033 | [5] 0.012

UBL4A (UniProt P11441)
inactive: [1] 0.004 | [2] 0.036 | [3] 0.004 | [4] 0.007 | [5] -0.018

URI1 (UniProt O94763)
inactive: [1] -0.023 | [2] 0.005 | [3] 0.069 | [4] 0.057 | [5] -0.007

VCP (UniProt P55072)
inactive: [1] 0.02 | [2] 0.008 | [3] -0.012 | [4] 0.014 | [5] 0.044

UQCRB (UniProt P14927)
inactive: [1] 0.018 | [2] 0.043 | [3] 0.049 | [4] -0.044 | [5] -0.012

UHRF1BP1 (UniProt Q6BDS2)
inactive: [1] -0.01 | [2] 0.109 | [3] 0.006 | [4] -0.001 | [5] -0.007

UBXN7 (UniProt O94888)
inactive: [1] -0.022 | [2] 0.012 | [3] 0.039 | [4] 0.001 | [5] -0.01

USP39 (UniProt Q53GS9)
inactive: [1] 0.005 | [2] -0.045 | [3] -0.068 | [4] 0.049 | [5] -0.005

UBXN1 (UniProt Q04323)
inactive: [1] -0.004 | [2] 0.042 | [3] 0.084 | [4] 0.004 | [5] 0.002

UPF1 (UniProt Q92900)
inactive: [1] -0.006 | [2] 0.032 | [3] 0.032 | [4] 0.002 | [5] -0.017

UQCC1 (UniProt Q9NVA1)
inactive: [1] 0.012 | [2] 0.009 | [3] -0.035 | [4] 0 | [5] 0.005

UCHL5 isoform 3 (UniProt Q9Y5K5)
inactive: [1] 0.021 | [2] 0.232 | [3] -0.123 | [4] 0.069 | [5] 0.167

USP9X (UniProt Q93008)
inactive: [1] -0.049 | [2] 0.028 | [3] 0.057 | [4] 0.012 | [5] -0.007

UTP3 (UniProt Q9NQZ2)
inactive: [1] 0.049 | [2] -0.312 | [3] -0.041 | [4] 0.042 | [5] -0.007
